Results published in article PMC12741050.
These are yes or no findings as the source states them, for the method shown. In cells and extracts the contact can be indirect. Binding calls can cover weak binding; strength is not graded here.

Amino acid sequences for entries named in this document (tags omitted). A change or cut given only in a name is not applied to a line headed by its entry.
UniProt P08476: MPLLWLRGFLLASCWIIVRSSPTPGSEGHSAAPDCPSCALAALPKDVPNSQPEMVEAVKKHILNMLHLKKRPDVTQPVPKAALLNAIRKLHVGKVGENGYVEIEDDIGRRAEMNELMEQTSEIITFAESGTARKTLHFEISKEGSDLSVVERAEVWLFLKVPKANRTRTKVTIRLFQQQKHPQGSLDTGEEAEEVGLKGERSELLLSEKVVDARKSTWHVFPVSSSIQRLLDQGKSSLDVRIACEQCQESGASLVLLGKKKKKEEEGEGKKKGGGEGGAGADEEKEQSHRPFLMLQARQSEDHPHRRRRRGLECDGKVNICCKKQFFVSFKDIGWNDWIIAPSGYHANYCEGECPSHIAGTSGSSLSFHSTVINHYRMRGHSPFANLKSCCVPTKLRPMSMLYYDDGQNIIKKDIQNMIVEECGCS

Biological target: INHBA overexpressed in the INHBA-overexpressing cell model (human) (UniProt P08476)
Test: co-IP; CRC cell lysates; protein A/G magnetic beads with antibody or anti-Flag / anti-HA magnetic beads, overnight at 4 °C, six washes with lysis buffer, Western blot

binding: binds
B1: SLC25A10 in CRC cells (no SLC25A10 construct named) (protein, UniProt Q9UBX3 1-287)
chain: MAAEARVSRWYFGGLASCGAACCTHPLDLLKVHLQTQQEVKLRMTGMALRVVRTDGILALYSGLSASLCRQMTYSLTRFAIYETVRDRVAKGSQGPLPFHEKVLLGSVSGLAGGFVGTPADLVNVRMQNDVKLPQGQRRNYAHALDGLYRVAREEGLRRLFSGATMASSRGALVTVGQLSCYDQAKQLVLSTGYLSDNIFTHFVASFIAGGCATFLCQPLDVLKTRLMNSKGEYQGVFHCAVETAKLGPLAFYKGLVPAGIRLIPHTVLTFVFLEQLRKNFGIKVPS
